# Laboratory results published in ChEMBL document CHEMBL1122670, “Synthesis of previously inaccessible quinazolines and 1,4-benzodiazepines as potential anticonvulsants” (J Med Chem, 1984).
# Target: GABA-A receptor; anion channel
# Test: Binding affinity for umolar GABA-A central benzodiazepine receptor
# Assay type: protein-complex assay, Mus musculus
smiles,measurement,value
CN1C(=O)CN=C(c2ccccc2)c2cc(Cl)ccc21 [DIAZEPAM],Ki,85 µM
